Measured values: the supplement of paper PMC10849652
Some of the results follow.

Protein sequences, listed by entry. Tags and fused reporters are not part of them. Lines headed by an entry give the natural chain unless they say otherwise; changes in a name come on top.
UniProt Q9H3L0: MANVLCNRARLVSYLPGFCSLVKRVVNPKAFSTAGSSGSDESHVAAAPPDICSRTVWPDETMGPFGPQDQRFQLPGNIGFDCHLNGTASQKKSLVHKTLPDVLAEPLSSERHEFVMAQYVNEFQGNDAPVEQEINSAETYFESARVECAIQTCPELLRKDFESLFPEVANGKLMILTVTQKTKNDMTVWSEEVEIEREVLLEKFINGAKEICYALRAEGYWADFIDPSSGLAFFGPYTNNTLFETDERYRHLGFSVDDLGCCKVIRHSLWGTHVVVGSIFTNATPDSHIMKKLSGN
UniProt Q8IYU8: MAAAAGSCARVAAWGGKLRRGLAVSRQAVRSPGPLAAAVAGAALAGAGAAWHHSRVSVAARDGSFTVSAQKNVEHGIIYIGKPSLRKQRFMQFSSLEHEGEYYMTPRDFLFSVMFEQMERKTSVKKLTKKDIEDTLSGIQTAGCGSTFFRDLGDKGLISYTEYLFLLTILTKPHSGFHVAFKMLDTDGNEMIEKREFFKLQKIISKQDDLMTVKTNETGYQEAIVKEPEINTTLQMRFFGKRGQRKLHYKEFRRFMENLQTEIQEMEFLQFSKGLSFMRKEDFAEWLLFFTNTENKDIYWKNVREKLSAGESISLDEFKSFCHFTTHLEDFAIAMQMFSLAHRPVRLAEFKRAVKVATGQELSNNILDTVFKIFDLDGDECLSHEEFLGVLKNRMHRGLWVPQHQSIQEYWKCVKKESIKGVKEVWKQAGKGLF
UniProt Q8N4C8: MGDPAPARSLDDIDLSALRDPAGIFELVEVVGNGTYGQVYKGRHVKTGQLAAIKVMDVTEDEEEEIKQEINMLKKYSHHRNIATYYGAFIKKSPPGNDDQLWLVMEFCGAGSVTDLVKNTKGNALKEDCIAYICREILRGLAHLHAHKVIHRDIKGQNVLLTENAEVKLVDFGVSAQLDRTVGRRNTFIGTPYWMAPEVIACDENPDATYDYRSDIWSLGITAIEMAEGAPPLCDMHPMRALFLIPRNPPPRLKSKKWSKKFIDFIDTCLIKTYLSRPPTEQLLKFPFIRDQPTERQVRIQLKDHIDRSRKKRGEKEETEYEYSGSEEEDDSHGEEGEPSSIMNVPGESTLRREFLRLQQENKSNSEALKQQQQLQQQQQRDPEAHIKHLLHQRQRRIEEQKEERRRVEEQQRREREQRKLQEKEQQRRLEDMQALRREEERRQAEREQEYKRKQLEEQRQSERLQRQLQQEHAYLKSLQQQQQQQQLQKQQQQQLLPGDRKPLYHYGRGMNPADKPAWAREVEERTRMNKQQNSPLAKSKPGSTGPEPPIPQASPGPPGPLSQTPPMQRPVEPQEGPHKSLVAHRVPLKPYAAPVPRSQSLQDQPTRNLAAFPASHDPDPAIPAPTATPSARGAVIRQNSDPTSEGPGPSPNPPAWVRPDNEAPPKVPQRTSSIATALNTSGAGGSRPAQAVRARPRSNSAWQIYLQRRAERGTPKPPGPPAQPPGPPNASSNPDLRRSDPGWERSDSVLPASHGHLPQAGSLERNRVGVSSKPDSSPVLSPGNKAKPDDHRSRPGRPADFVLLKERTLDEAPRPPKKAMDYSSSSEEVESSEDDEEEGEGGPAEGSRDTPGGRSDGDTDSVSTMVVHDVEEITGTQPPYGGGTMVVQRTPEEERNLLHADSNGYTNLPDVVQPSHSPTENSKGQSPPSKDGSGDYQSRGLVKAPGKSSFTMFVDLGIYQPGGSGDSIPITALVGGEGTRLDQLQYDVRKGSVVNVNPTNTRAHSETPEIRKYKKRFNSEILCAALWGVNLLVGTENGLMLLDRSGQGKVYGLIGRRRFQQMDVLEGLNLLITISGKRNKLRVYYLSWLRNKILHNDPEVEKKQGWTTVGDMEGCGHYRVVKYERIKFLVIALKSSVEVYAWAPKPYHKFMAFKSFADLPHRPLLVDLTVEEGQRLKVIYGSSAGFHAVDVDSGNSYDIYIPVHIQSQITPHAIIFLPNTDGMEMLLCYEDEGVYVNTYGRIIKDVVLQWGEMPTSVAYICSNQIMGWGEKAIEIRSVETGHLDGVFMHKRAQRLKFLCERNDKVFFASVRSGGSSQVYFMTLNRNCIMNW
UniProt Q86YT6, whole entry, looked up: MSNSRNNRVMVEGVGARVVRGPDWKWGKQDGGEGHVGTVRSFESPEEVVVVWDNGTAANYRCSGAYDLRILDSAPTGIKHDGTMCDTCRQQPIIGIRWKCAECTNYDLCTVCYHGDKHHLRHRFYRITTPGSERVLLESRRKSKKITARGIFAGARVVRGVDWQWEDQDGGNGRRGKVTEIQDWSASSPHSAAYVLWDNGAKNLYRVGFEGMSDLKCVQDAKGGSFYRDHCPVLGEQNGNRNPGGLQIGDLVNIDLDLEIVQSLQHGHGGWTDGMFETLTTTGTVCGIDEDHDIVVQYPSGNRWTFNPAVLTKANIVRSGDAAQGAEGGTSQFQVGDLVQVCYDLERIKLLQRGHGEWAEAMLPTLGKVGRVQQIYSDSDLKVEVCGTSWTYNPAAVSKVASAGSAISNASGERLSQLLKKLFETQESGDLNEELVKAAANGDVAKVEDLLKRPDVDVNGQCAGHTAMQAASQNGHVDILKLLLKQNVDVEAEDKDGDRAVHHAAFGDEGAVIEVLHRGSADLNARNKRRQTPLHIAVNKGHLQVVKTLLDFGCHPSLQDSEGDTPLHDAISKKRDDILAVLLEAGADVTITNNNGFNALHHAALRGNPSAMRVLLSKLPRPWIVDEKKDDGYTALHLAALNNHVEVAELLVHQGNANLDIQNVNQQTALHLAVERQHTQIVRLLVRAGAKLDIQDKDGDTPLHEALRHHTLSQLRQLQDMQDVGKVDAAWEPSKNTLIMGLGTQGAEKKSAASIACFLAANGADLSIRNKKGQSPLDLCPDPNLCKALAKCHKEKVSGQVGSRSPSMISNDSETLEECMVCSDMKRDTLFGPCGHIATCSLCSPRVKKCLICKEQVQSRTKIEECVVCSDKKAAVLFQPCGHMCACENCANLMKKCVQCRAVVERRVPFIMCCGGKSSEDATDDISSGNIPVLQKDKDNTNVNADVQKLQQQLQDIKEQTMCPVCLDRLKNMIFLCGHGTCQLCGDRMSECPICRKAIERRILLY
UniProt Q9NQG6: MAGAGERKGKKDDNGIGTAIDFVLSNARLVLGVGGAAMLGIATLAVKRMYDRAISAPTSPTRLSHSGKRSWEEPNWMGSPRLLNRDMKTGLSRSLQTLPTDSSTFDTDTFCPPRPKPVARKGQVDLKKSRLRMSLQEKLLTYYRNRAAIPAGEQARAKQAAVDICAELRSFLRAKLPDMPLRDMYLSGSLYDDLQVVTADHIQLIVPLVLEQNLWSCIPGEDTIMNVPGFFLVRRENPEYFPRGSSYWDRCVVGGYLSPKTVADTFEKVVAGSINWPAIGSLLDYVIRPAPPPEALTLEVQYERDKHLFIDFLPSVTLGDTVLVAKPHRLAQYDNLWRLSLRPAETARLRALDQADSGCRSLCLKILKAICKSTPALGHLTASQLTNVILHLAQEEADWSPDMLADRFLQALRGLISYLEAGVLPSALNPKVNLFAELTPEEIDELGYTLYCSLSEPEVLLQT
UniProt Q13015: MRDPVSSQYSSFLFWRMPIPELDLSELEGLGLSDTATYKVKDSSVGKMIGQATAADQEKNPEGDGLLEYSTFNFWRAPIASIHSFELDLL

Tests used:
Test in all cases: log2 fold change, soluble protein after heating vs DMSO (PISA); higher = thermal stabilisation; K562 cells, 10 uM, 30 min; active = over 0.2 and 3.5 SD of the protein, either way, in both replicates (recomputed)
[1] = compound: C1=CC=C(C=C1)[C@H](COC2=CC3=C(C=C2)NC(=O)N3)NC(=O)C4=CC=CN(C4=O)CC5=CC(=C(C=C5)F)F
Summary of the method: (§1)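 For each measurement, 10 μM compound was applied for 30 min to K562 cells at 2×10^6 cells/mL. Aliquots were heated for 3 min across 48°C-58°C, pooled, and extracted in PBS with 0.5% NP-40 at 4°C; the supernatant after 21,000xg for 90 min was soluble protein. This was quantified by TMTpro 16plex LC-MS/MS with channel sums equalised, and thermal stability was reported relative to control samples from duplicates, on a log2 fold-change scale.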

[2] = compound: CC1=C(SC2=C1C(=N[C@H](C3=NN=C(N32)C)CC(=O)N)C4=CC=C(C=C4)Cl)C
Summary of the method: as §1

[3] = compound: CC1=C2C(=CC=C1)N=C(N(C2=O)C3=CC=CC=C3C)CN4C=NC5=C(N=CN=C54)N
Summary of the method: as §1

[4] = compound: Cc1sc2c(c1C)C(c1ccc(Cl)cc1)=N[C@@H](CC(=O)OC(C)(C)C)c1nnc(C)n1-2
Summary of the method: as §1

[5] = compound: c1ccc([C@@H]2C[C@H]2NC2CCNCC2)cc1
Summary of the method: as §1

Measured: log2 fold change

MIEF1 (UniProt L0R8F8)
inactive: [1] 0.072 | [2] 0.026 | [3] 0.039 | [4] -0.092 | [5] 0.007

MRPL44 (UniProt Q9H9J2)
inactive: [1] 0.052 | [2] -0.122 | [3] -0.175 | [4] 0.051 | [5] -0.036

MMADHC (UniProt Q9H3L0)
inactive: [1] 0.056 | [2] -0.155 | [3] 0.057 | [4] 0.088 | [5] 0.077

MICU2 (UniProt Q8IYU8)
inactive: [1] 0.013 | [2] -0.037 | [3] -0.123 | [4] -0.029 | [5] 0.021

MINK1 (UniProt Q8N4C8)
inactive: [1] -0.036 | [2] 0.024 | [3] -0.01 | [4] 0.037 | [5] 0.005

MIB1 (UniProt Q86YT6)
inactive: [1] -0.029 | [2] -0.001 | [3] 0.096 | [4] 0.16 | [5] 0.087

MRPL14 (UniProt Q6P1L8)
inactive: [1] -0.02 | [2] 0.015 | [3] -0.059 | [4] 0.033 | [5] -0.094

MIEF1 (UniProt Q9NQG6)
inactive: [1] -0.043 | [2] 0.053 | [3] 0.047 | [4] -0.024 | [5] -0.054

MLLT11 (UniProt Q13015)
inactive: [1] -0.053 | [2] 0.117 | [3] -0.23 | [4] -0.041 | [5] 0.212
